Laboratory results taken from article PMC7762940.
Results are given in words; binding and its absence hold for the method and conditions named. A result given as binding can be weak or reduced; the word gives no strength.

Experiments:
[1] = target: T1, TubR of pBc10987 (centromere-binding protein) (Bacillus cereus (plasmid pBc10987)) (UniProt Q74P25); experiment: native gel or EMSA; 32P-labelled pro2 DNA (65321-65577 nt, lacks BcY-binding sites) with TubR, BcY or both; 6% polyacrylamide gel; both purified
T1 sequence: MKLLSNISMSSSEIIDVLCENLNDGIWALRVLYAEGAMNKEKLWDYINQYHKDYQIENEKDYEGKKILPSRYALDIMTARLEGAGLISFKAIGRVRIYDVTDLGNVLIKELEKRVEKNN

[2] = target: T1, TubR of pBc10987 (centromere-binding protein) (Bacillus cereus (plasmid pBc10987)); experiment: native gel or EMSA; 32P-labelled pro12 DNA (65171-65577 nt); TubR preincubated with pro12, then BcY, BcYmut or BcYΔ added; both purified

| binding [1] | Substance | binding [2] |
| --- | --- | --- |
| binds | Full-length TubY from B. cereus (BcY) (Bacillus cereus (plasmid pBc10987)) | – |
| – | BcYΔ (TubY residues 1-182, lacks the C-terminal tail) (Bacillus cereus (plasmid pBc10987)) (domain or fragment) | binds weakly |
